{
  "source": "paper PMC11260172",
  "biological_target": "T1, CSRNP3-Flag (UniProt Q8WYN3)",
  "T1 sequence": "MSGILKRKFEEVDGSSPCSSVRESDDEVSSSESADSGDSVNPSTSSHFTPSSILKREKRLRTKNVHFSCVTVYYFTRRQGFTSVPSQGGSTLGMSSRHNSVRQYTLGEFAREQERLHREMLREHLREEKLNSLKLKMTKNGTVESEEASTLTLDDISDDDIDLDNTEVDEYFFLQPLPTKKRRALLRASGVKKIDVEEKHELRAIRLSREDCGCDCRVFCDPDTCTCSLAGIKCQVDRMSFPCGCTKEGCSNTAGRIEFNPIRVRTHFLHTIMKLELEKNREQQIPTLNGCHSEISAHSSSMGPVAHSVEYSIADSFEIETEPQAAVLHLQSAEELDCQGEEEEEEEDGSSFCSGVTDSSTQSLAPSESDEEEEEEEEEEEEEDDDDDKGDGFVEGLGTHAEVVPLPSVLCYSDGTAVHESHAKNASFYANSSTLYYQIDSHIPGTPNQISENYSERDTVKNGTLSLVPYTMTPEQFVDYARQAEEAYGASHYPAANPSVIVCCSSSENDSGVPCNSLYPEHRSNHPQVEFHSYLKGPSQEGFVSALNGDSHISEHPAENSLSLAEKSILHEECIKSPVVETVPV",
  "assay": "affinity purification with mass spectrometry; IP with anti-Flag antibodies in PC-9 cells transfected with a vector expressing Flag-CSRNP3; control anti-IgG; silver staining and mass spectrometry",
  "note": "Results are given in words; binding and its absence hold for the method and conditions named. In cells and extracts the contact can be indirect. These calls come from enrichment with a bait or labelling near it, and not all partners need be listed. Where a sequence is shown, tags or fusion partners need not be part of it.",
  "data": [
    {"substance": "catalytic subunit of Ser/Thr phosphatase-1 (PP1) (human (endogenous in PC-9)) (enzyme)", "values": [
      {"measurement": "binding", "value": "binds"}
    ]}
  ]
}
